# Data as given in publication PMC7956269.
# These are yes or no findings as the source states them, for the method shown. Binding seen in cells or lysates may run through a third protein. These calls come from enrichment with a bait or labelling near it, and not all partners need be listed.
# B1: Lcp1 (protein, UniProt P13796 1-627)
# chain: MARGSVSDEEMMELREAFAKVDTDGNGYISFNELNDLFKAACLPLPGYRVREITENLMATGDLDQDGRISFDEFIKIFHGLKSTDVAKTFRKAINKKEGICAIGGTSEQSSVGTQHSYSEEEKYAFVNWINKALENDPDCRHVIPMNPNTNDLFNAVGDGIVLCKMINLSVPDTIDERTINKKKLTPFTIQENLNLALNSASAIGCHVVNIGAEDLKEGKPYLVLGLLWQVIKIGLFADIELSRNEALIALLREGESLEDLMKLSPEELLLRWANYHLENAGCNKIGNFSTDIKDSKAYYHLLEQVAPKGDEEGVPAVVIDMSGLREKDDIQRAECMLQQAERLGCRQFVTATDVVRGNPKLNLAFIANLFNRYPALHKPENQDIDWGALEGETREERTFRNWMNSLGVNPRVNHLYSDLSDALVIFQLYEKIKVPVDWNRVNKPPYPKLGGNMKKLENCNYAVELGKNQAKFSLVGIGGQDLNEGNRTLTLALIWQLMRRYTLNILEEIGGGQKVNDDIIVNWVNETLREAKKSSSISSFKDPKISTSLPVLDLIDAIQPGSINYDLLKTENLNDDEKLNNAKYAISMARKIGARVYALPEDLVEVNPKMVMTVFACLMGKGMKRV
# B2: S100a9 (protein, UniProt P06702 1-114)
# chain: MTCKMSQLERNIETIINTFHQYSVKLGHPDTLNQGEFKELVRKDLQNFLKKENKNEKVIEHIMEDLDTNADKQLSFEEFIMLMARLTWASHEKMHEGDEGPGHHHKPGLGEGTP
# B3: Hnrnpdl (protein, UniProt O14979 1-420)
# chain: MEVPPRLSHVPPPLFPSAPATLASRSLSHWRPRPPRQLAPLLPSLAPSSARQGARRAQRHVTAQQPSRLAGGAAIKGGRRRRPDLFRRHFKSSSIQRSAAAAAATRTARQHPPADSSVTMEDMNEYSNIEEFAEGSKINASKNQQDDGKMFIGGLSWDTSKKDLTEYLSRFGEVVDCTIKTDPVTGRSRGFGFVLFKDAASVDKVLELKEHKLDGKLIDPKRAKALKGKEPPKKVFVGGLSPDTSEEQIKEYFGAFGEIENIELPMDTKTNERRGFCFITYTDEEPVKKLLESRYHQIGSGKCEIKVAQPKEVYRQQQQQQKGGRGAAAGGRGGTRGRGRGQGQNWNQGFNNYYDQGYGNYNSAYGGDQNYSGYGGYDYTGYNYGNYGYGQGYADYSGQQSTYGKASRGGGNHQNNYQPY
# B4: Tbl3 (protein, UniProt Q12788 1-808)
# chain: MAETAAGVGRFKTNYAVERKIEPFYKGGKAQLDQTGQHLFCVCGTRVNILEVASGAVLRSLEQEDQEDITAFDLSPDNEVLVTASRALLLAQWAWQEGSVTRLWKAIHTAPVATMAFDPTSTLLATGGCDGAVRVWDIVRHYGTHHFRGSPGVVHLVAFHPDPTRLLLFSSATDAAIRVWSLQDRSCLAVLTAHYSAVTSLAFSADGHTMLSSGRDKICIIWDLQSCQATRTVPVFESVEAAVLLPEEPVSQLGVKSPGLYFLTAGDQGTLRVWEAASGQCVYTQAQPPGPGQELTHCTLAHTAGVVLTATADHNLLLYEARSLRLQKQFAGYSEEVLDVRFLGPEDSHVVVASNSPCLKVFELQTSACQILHGHTDIVLALDVFRKGWLFASCAKDQSVRIWRMNKAGQVMCVAQGSGHTHSVGTVCCSRLKESFLVTGSQDCTVKLWPLPKALLSKNTAPDNGPILLQAQTTQRCHDKDINSVAIAPNDKLLATGSQDRTAKLWALPQCQLLGVFSGHRRGLWCVQFSPMDQVLATASADGTIKLWALQDFSCLKTFEGHDASVLKVAFVSRGTQLLSSGSDGLVKLWTIKNNECVRTLDAHEDKVWGLHCSRLDDHALTGASDSRVILWKDVTEAEQAEEQARQEEQVVRQQELDNLLHEKRYLRALGLAISLDRPHTVLTVIQAIRRDPEACEKLEATMLRLRRDQKEALLRFCVTWNTNSRHCHEAQAVLGVLLRREAPEELLAYEGVRAALEALLPYTERHFQRLSRTLQAAAFLDFLWHNMKLPVPAAAPTPWETHKGALP
# B5: Hnrnpm (protein, UniProt P52272 1-730)
# chain: MAAGVEAAAEVAATEIKMEEESGAPGVPSGNGAPGPKGEGERPAQNEKRKEKNIKRGGNRFEPYANPTKRYRAFITNIPFDVKWQSLKDLVKEKVGEVTYVELLMDAEGKSRGCAVVEFKMEESMKKAAEVLNKHSLSGRPLKVKEDPDGEHARRAMQKVMATTGGMGMGPGGPGMITIPPSILNNPNIPNEIIHALQAGRLGSTVFVANLDYKVGWKKLKEVFSMAGVVVRADILEDKDGKSRGIGTVTFEQSIEAVQAISMFNGQLLFDRPMHVKMDERALPKGDFFPPERPQQLPHGLGGIGMGLGPGGQPIDANHLNKGIGMGNIGPAGMGMEGIGFGINKMGGMEGPFGGGMENMGRFGSGMNMGRINEILSNALKRGEIIAKQGGGGGGGSVPGIERMGPGIDRLGGAGMERMGAGLGHGMDRVGSEIERMGLVMDRMGSVERMGSGIERMGPLGLDHMASSIERMGQTMERIGSGVERMGAGMGFGLERMAAPIDRVGQTIERMGSGVERMGPAIERMGLSMERMVPAGMGAGLERMGPVMDRMATGLERMGANNLERMGLERMGANSLERMGLERMGANSLERMGPAMGPALGAGIERMGLAMGGGGGASFDRAIEMERGNFGGSFAGSFGGAGGHAPGVARKACQIFVRNLPFDFTWKMLKDKFNECGHVLYADIKMENGKSKGCGVVKFESPEVAERACRMMNGMKLSGREIDVRIDRNA
# B6: Nrf1 (protein, UniProt Q16656 1-503)
# chain: MEEHGVTQTEHMATIEAHAVAQQVQQVHVATYTEHSMLSADEDSPSSPEDTSYDDSDILNSTAADEVTAHLAAAGPVGMAAAAAVATGKKRKRPHVFESNPSIRKRQQTRLLRKLRATLDEYTTRVGQQAIVLCISPSKPNPVFKVFGAAPLENVVRKYKSMILEDLESALAEHAPAPQEVNSELPPLTIDGIPVSVDKMTQAQLRAFIPEMLKYSTGRGKPGWGKESCKPIWWPEDIPWANVRSDVRTEEQKQRVSWTQALRTIVKNCYKQHGREDLLYAFEDQQTQTQATATHSIAHLVPSQTVVQTFSNPDGTVSLIQVGTGATVATLADASELPTTVTVAQVNYSAVADGEVEQNWATLQGGEMTIQTTQASEATQAVASLAEAAVAASQEMQQGATVTMALNSEAAAHAVATLAEATLQGGGQIVLSGETAAAVGALTGVQDANGLVQIPVSMYQTVVTSLAQGNGPVQVAMAPVTTRISDSAVTMDGQAVEVVTLEQ
# B7: Srsf3 (protein, UniProt P84103 1-164)
# chain: MHRDSCPLDCKVYVGNLGNNGNKTELERAFGYYGPLRSVWVARNPPGFAFVEFEDPRDAADAVRELDGRTLCGCRVRVELSNGEKRSRNRGPPPSWGRRPRDDYRRRSPPPRRRSPRRRSFSRSRSRSLSRDRRRERSLSRERNHKPSRSFSRSRSRSRSNERK
# B8: Vangl1 (protein, UniProt Q8TAA9 1-524)
# chain: MDTESTYSGYSYYSSHSKKSHRQGERTRERHKSPRNKDGRGSEKSVTIQPPTGEPLLGNDSTRTEEVQDDNWGETTTAITGTSEHSISQEDIARISKDMEDSVGLDCKRYLGLTVASFLGLLVFLTPIAFILLPPILWRDELEPCGTICEGLFISMAFKLLILLIGTWALFFRKRRADMPRVFVFRALLLVLIFLFVVSYWLFYGVRILDSRDRNYQGIVQYAVSLVDALLFIHYLAIVLLELRQLQPMFTLQVVRSTDGESRFYSLGHLSIQRAALVVLENYYKDFTIYNPNLLTASKFRAAKHMAGLKVYNVDGPSNNATGQSRAMIAAAARRRDSSHNELYYEEAEHERRVKKRKARLVVAVEEAFIHIQRLQAEEQQKAPGEVMDPREAAQAIFPSMARALQKYLRITRQQNYHSMESILQHLAFCITNGMTPKAFLERYLSAGPTLQYDKDRWLSTQWRLVSDEAVTNGLRDGIVFVLKCLDFSLVVNVKKIPFIILSEEFIDPKSHKFVLRLQSETSV
# B9: Mcm5 (protein, UniProt P33992 1-734)
# chain: MSGFDDPGIFYSDSFGGDAQADEGQARKSQLQRRFKEFLRQYRVGTDRTGFTFKYRDELKRHYNLGEYWIEVEMEDLASFDEDLADYLYKQPAEHLQLLEEAAKEVADEVTRPRPSGEEVLQDIQVMLKSDASPSSIRSLKSDMMSHLVKIPGIIIAASAVRAKATRISIQCRSCRNTLTNIAMRPGLEGYALPRKCNTDQAGRPKCPLDPYFIMPDKCKCVDFQTLKLQELPDAVPHGEMPRHMQLYCDRYLCDKVVPGNRVTIMGIYSIKKFGLTTSRGRDRVGVGIRSSYIRVLGIQVDTDGSGRSFAGAVSPQEEEEFRRLAALPNVYEVISKSIAPSIFGGTDMKKAIACLLFGGSRKRLPDGLTRRGDINLLMLGDPGTAKSQLLKFVEKCSPIGVYTSGKGSSAAGLTASVMRDPSSRNFIMEGGAMVLADGGVVCIDEFDKMREDDRVAIHEAMEQQTISIAKAGITTTLNSRCSVLAAANSVFGRWDETKGEDNIDFMPTILSRFDMIFIVKDEHNEERDVMLAKHVITLHVSALTQTQAVEGEIDLAKLKKFIAYCRVKCGPRLSAEAAEKLKNRYIIMRSGARQHERDSDRRSSIPITVRQLEAIVRIAEALSKMKLQPFATEADVEEALRLFQVSTLDAALSGTLSGVEGFTSQEDQEMLSRIEKQLKRRFAIGSQVSEHSIIKDFTKQKYPEHAIHKVLQLMLRRGEIQHRMQRKVLYRLK
# B10: Stt3a (protein, UniProt P46977 1-705)
# chain: MTKFGFLRLSYEKQDTLLKLLILSMAAVLSFSTRLFAVLRFESVIHEFDPYFNYRTTRFLAEEGFYKFHNWFDDRAWYPLGRIIGGTIYPGLMITSAAIYHVLHFFHITIDIRNVCVFLAPLFSSFTTIVTYHLTKELKDAGAGLLAAAMIAVVPGYISRSVAGSYDNEGIAIFCMLLTYYMWIKAVKTGSICWAAKCALAYFYMVSSWGGYVFLINLIPLHVLVLMLTGRFSHRIYVAYCTVYCLGTILSMQISFVGFQPVLSSEHMAAFGVFGLCQIHAFVDYLRSKLNPQQFEVLFRSVISLVGFVLLTVGALLMLTGKISPWTGRFYSLLDPSYAKNNIPIIASVSEHQPTTWSSYYFDLQLLVFMFPVGLYYCFSNLSDARIFIIMYGVTSMYFSAVMVRLMLVLAPVMCILSGIGVSQVLSTYMKNLDISRPDKKSKKQQDSTYPIKNEVASGMILVMAFFLITYTFHSTWVTSEAYSSPSIVLSARGGDGSRIIFDDFREAYYWLRHNTPEDAKVMSWWDYGYQITAMANRTILVDNNTWNNTHISRVGQAMASTEEKAYEIMRELDVSYVLVIFGGLTGYSSDDINKFLWMVRIGGSTDTGKHIKENDYYTPTGEFRVDREGSPVLLNCLMYKMCYYRFGQVYTEAKRPPGFDRVRNAEIGNKDFELDVLEEAYTTEHWLVRIYKVKDLDNRGLSRT
# B11: Zcchc17 (protein, UniProt Q9NP64 1-241)
# chain: MNSGRPETMENLPALYTIFQGEVAMVTDYGAFIKIPGCRKQGLVHRTHMSSCRVDKPSEIVDVGDKVWVKLIGREMKNDRIKVSLSMKVVNQGTGKDLDPNNVIIEQEERRRRSFQDYTGQKITLEAVLNTTCKKCGCKGHFAKDCFMQPGGTKYSLIPDEEEEKEEAKSAEFEKPDPTRNPSRKRKKEKKKKKHRDRKSSDSDSSDSESDTGKRARHTSKDSKAAKKKKKKKKHKKKHKE
# Molecular target: Biotin-FOXC1 (mouse) (UniProt Q61572)
# Test: affinity purification with mass spectrometry; streptavidin-agarose precipitation of biotinylated FOXC1 from nuclear extract of stable HEK293T cells (293T-Biotin-FOXC1); IP350 buffer (350 mM NaCl, 20 mM Tris-HCl pH 7.5, 0.5% NP40, 1 mM EDTA, 10% glycerin); SDS-PAGE, LC-ESI-MS/MS; proteins of the 293T-Biotin control deducted
row,binding,Binder
1,binds,B1
2,binds,B2
3,binds,B3
4,binds,B4
5,binds,B5
6,binds,B6
7,binds,B7
8,binds,B8
9,binds,B9
10,binds,B10
11,binds,B11
